Measurements as given in patent publication US7655643B2 (AiCuris GmbH & Co. KG, priority 2003, dated 2010).

Key:
[1] = general procedure: solution-phase peptide synthesis; HATU / Hünig's base; EDC/DMAP pentafluorophenyl ester for macrocyclisation; conditions: late stage modification step
S. aureus 133 = experiment: Determination of the spontaneous resistance rates to S. aureus; assay type: cell-based; conditions: 48 h

## 3-Amino-N-{[(8S,11S,14S)-14-amino-11-[(2R) -3-amino-2-hydroxypropyl]-5-chloro-17-hydroxy-10,13-dioxo-9,12-diazatricyclo-[14.3.1.1^2,6]henicosa-1(20),2(21),3,5,16,18-hexaen-8-yl]carbo-nyl}-L-alanine tri(hydrotrifluoroacetate)
[1]; tri(hydrotrifluoroacetate)
  step yield: 8% of theory

## NC[C@H](O)C[C@@H]1NC(=O)[C@@H](N)Cc2cc(ccc2O)-c2ccc(O)c(c2)C[C@@H](C(=O)O)NC1=O [Biphenomycin B, biphenomycin B, reference compound]
S. aureus 133; 10× MIC
  spontaneous resistance rate S. aureus 133: 1.7 × 10^−6

## NCCNC(=O)[C@@H]1Cc2cc(ccc2F)-c2ccc(O)c(c2)C[C@H](N)C(=O)N[C@@H](C[C@@H](O)CN)C(=O)N1 [Example 12]
S. aureus 133; 5× MIC
  spontaneous resistance rate S. aureus 133: 1.3 × 10^−10

## CN1C(=O)[C@H](CCCN)NC(=O)[C@@H](N)Cc2cc(ccc2O)-c2ccc(Cl)c(c2)C[C@H]1C(=O)NCCN(CCN)CCN [Example 42, (8S,11S,14S)-14-Amino-11-(3-aminopropyl)-N-{2-[bis(2-aminoethyl)amino]ethyl}-5-chloro-17-hydroxy-9-methyl-10,13-dioxo-9,12-diazatricyclo[14.3.1.1^2,6]henicosa-1(20),2(21)3,5,16,18-hexaene-8-carboxamide penta(hydrotrifluoroacetate)]
S. aureus 133; 5× MIC
  spontaneous resistance rate S. aureus 133: 5.3 × 10^−10

## (8S,11S,14S)-14-Amino-11-[(2R)-3-amino-2-hydroxypropyl]-N-(2-amino-2-oxoethyl)-5-chloro-17-hydroxy-10,13-dioxo-9,12-diazatricyclo[14.3.1.1^2,6]henicosa-1(20),2(21),3,5,16,18-hexaene-8-carboxamide di(hydrotrifluoroacetate)
[1]; di(hydrotrifluoroacetate)
  step yield: 29% of theory

## Methyl 3-amino-N-{[(8S,11S,14S)-14-amino-11-[(2R)-3-amino-2-hydroxypropyl]-5-chloro-17-hydroxy-10,13-dioxo-9,12-diazatricy-clo[14.3.1.1^2,6]henicosa-1(20),2(21),3,5,16.18-hexaen-8-yl]carbonyl}-L-alaninate tri(hydrotrifluoroacetate)
[1]; tri(hydrotrifluoroacetate)
  step yield: 43% of theory

## N-{[(8S,11S,14S)-14-Amino-11-[(2R)-3-amino -2-hydroxypropyl]-5-chloro-17-hydroxy-10,13-dioxo-9,12-diazatricyclo[14.3.1.1^2,6]-henicosa-1(20),2(21),3,5,16,18-hexaen-8-yl]carbonyl}-L-serine di(hydrotrifluoroacetate)
[1]; di(hydrotrifluoroacetate)
  step yield: 11% of theory
